Reference: PubChem BioAssay AID1224828 (NIAID, 2016)
Aim: 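Knock-downs that increase or decrease LPS-induced p65 nuclear translocation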 (primary screen). System: mouse RAW264.7 G9 macrophage reporter cells (GFP-p65, Tnf promoter-mCherry). Reagents: siRNA pool against mouse genes, 100 nM. Time to read-out: 2 days siRNA transfection, then 40 min LPS before fixation. Conditions: LPS (Salmonella minnesota R595) at 10 ng/ml. Detection: 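Microscopy ratio of nuclear to perinuclear-ring GFP-p65 signal, scaled to the plate median; gene score is the average of two replicate robust z-scores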. Direction: p65 translocation robust z-score: higher = more nuclear NF-kappaB p65 after LPS than the plate median; nuclear/cytoplasmic p65 ratio: higher = more nuclear NF-kappaB p65. Hit rule: 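Active if robust z is above 3.3 (negative regulators) or below -1.56, the Tlr4 control median (positive regulators); activity score 50 or more; control wells not called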. Calls: active = hit (p65 shift raised or lowered); inactive = no clear change.
In all, the deposit lists about 17,000 reagents; shown is a part drawn at random. Over the whole deposit, 762 (4.5%) are marked active. 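Active calls include both raised and lowered p65 entry, mostly lowered; wells with fewer than 50 cells lack a z-score.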 The raw values are shown without normalisation. Unmarked entries are inactive. The numbers tell different reagents against one gene apart.

| gene knocked down | reagent no. | p65 translocation robust z-score | nuclear/cytoplasmic p65 ratio, rep 1 | nuclear/cytoplasmic p65 ratio, rep 2 | low cell count flag |
| --- | --- | --- | --- | --- | --- |
| Cyb5r1 | 1 | -1.28 | 1.3 | 1.23 | enough cells to score |
| B930095G15Rik | 1 | 1.35 | 1.75 | 2.1 | enough cells to score |
| Mmp7 | 1 | -0.27 | 1.43 | 1.29 | enough cells to score |
| Sh3d19 | 1 | -0.93 | 1.28 | 1.15 | enough cells to score |
| Dleu7 | 1 | 0.88 | 1.55 | 1.7 | enough cells to score |
| Kdm4c | 1 | -0.42 | 1.57 | 1.3 | enough cells to score |
| Slc9a8 | 1 | -0.27 | 1.2 | 1.2 | enough cells to score |
| Lrrc45 | 1 | 0.13 | 1.56 | 1.9 | enough cells to score |
| Ppp1r12a | 1 | -0.67 | 1.38 | 1.35 | enough cells to score |
| Slfn2 | 1 | – | 0 | 1.14 | fewer than 50 cells per well; well left out of scoring |
| E2f1 | 1 | -0.2 | 1.46 | 1.35 | enough cells to score |
| Crtc3 | 1 | -0.51 | 1.41 | 1.87 | enough cells to score |
| A830019P07Rik | 1 | 0.86 | 1.47 | 1.66 | enough cells to score |
| Wdcp | 1 | -0.3 | 1.47 | 1.4 | enough cells to score |
| Aqp5 | 1 | -1.18 | 1.47 | 1.41 | enough cells to score |
| Tpx2 | 1 | – | 1.15 | 0.868 | fewer than 50 cells per well; well left out of scoring |
| Tas2r129 | 1 | – | 1.27 | 1.11 | fewer than 50 cells per well; well left out of scoring |
| Rnf220 | 1 | -1.24 | 1.12 | 1.08 | enough cells to score |
| Or10d1 | 1 | -0.17 | 1.33 | 1.22 | enough cells to score |
| Mlf2 | 1 | -0.38 | 1.34 | 1.34 | enough cells to score |
| Cggbp1 | 1 | 1.27 | 1.58 | 1.59 | enough cells to score |
| Or52e3 | 1 | -1.15 | 1.29 | 1.22 | enough cells to score |
| Wdr77 | 1 | – | 1.2 | 1.39 | fewer than 50 cells per well; well left out of scoring |
| Skint7 | 1 | 0.15 | 1.48 | 1.51 | enough cells to score |
| Deup1 | 1 | – | 1.33 | 1.22 | fewer than 50 cells per well; well left out of scoring |
| Nemp2 | 1 | 2.87 | 1.73 | 1.75 | enough cells to score |
| Or8g51 | 1 | -1.17 | 1.28 | 1.11 | enough cells to score |
| Scrn2 | 1 | -0.58 | 1.25 | 1.15 | enough cells to score |
| Ltap1 | 1 | -0.6 | 1.29 | 1.45 | enough cells to score |
| Afg3l1 | 1 | 0.07 | 1.54 | 1.77 | enough cells to score |
| Zbbx | 1 | 0.53 | 1.42 | 1.6 | enough cells to score |
| Zfp74 | 1 | – | 1.18 | 1.28 | fewer than 50 cells per well; well left out of scoring |
| Zbtb3 | 1 | 1.05 | 1.6 | 1.33 | enough cells to score |
| Ndufv1 | 1 | -1.24 | 1.58 | 1.41 | enough cells to score |
| Pde7b | 1 | -0.5 | 1.39 | 1.34 | enough cells to score |
| Mt4 | 1 | -1.43 | 1.49 | 1.43 | enough cells to score |
| Rpp40 | 1 | 0.55 | 1.31 | 1.28 | enough cells to score |
| Or6c205 | 1 | 0 | 1.58 | 1.45 | enough cells to score |
| Or6c205 | 2 | 0.46 | 1.6 | 1.24 | enough cells to score |
| Sema4a | 1 | -0.38 | 1.41 | 1.17 | enough cells to score |
